Reference: PMC4323006
No constants are given. Whether binding was seen depends on the method and setting. In cells and extracts the contact can be indirect. Binding calls can cover weak binding; strength is not graded here.

Amino acid sequences for entries named in this document (tags omitted).
UniProt Q16665: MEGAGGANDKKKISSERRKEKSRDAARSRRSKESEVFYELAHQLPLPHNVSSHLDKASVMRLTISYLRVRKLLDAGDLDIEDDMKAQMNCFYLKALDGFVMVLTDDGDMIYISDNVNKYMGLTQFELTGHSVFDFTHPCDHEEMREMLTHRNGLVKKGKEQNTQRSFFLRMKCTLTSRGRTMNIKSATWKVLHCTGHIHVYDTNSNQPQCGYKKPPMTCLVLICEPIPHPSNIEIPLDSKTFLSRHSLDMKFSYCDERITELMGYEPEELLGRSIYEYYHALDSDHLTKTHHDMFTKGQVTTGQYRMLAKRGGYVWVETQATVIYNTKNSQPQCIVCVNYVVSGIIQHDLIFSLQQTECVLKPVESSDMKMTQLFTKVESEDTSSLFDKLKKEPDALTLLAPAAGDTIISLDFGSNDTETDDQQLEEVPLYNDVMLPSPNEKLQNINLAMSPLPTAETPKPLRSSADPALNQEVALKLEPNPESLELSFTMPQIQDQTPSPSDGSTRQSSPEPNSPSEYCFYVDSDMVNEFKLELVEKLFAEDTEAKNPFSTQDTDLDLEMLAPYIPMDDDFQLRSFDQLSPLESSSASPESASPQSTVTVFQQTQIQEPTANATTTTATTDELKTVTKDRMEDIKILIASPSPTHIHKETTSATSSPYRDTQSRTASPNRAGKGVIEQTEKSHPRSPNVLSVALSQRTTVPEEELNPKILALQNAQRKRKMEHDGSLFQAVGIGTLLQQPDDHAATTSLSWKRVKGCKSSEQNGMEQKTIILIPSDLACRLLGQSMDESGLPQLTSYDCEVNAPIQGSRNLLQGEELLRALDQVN
UniProt Q9GZT9: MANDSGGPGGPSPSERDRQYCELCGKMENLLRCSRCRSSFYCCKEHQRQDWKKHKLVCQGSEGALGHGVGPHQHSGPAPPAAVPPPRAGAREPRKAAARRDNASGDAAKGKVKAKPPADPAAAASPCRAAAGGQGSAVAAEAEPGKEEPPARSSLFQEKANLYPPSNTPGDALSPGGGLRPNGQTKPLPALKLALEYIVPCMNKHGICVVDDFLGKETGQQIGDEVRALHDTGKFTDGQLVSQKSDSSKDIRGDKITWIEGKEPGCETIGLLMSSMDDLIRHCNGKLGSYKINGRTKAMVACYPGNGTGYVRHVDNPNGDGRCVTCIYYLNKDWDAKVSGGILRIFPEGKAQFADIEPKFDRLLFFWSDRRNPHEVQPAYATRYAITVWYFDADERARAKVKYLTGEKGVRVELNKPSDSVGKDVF
UniProt P40337: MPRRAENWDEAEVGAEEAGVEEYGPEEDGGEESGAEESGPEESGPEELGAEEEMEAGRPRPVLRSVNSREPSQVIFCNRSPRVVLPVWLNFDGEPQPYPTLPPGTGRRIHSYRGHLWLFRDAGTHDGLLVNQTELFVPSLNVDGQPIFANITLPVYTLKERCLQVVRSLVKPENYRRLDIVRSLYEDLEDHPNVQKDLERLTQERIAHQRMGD

Tests used:
[1] = target: HIF-1α (source not stated for the experiment) (UniProt Q16665); assay: co-IP; HEK293 lysates (passive-lysis buffer, gentle sonication), antibody with protein A sepharose beads, immunoblot; normoxia, many panels with MG132; some panels with co-expressed PLD1, PLD1-PH, PHD2 or VHL or with DFX; for PLD1-PH under normoxia and hypoxia
[2] = target: PHD2 (HIF prolyl hydroxylase 2), transfected (UniProt Q9GZT9); assay: as above
[3] = target: Catalytically inactive mutant PLD1 (UniProt Q13393); assay: as above
[4] = target: β-domain of VHL (HA-VHL fragment); assay: as above
[5] = target: GST-VHL β-domain fragment; assay: pull-down; GST fusion on glutathione-sepharose 4B beads mixed with in vitro-translated protein, 4°C, 1 h, washed five times with PBS containing 1% triton-X 100; only the target purified

## Catalytically inactive mutant PLD1 (from UniProt Q13393) (enzyme)
[1]
  binding: binds
[2]
  binding: binds

## von Hippel-Lindau protein (HA-VHL), wild type (from UniProt P40337 1-213)
[3]
  binding: binds

B1: Phospholipase D1 (PLD1), wild type (enzyme, UniProt Q13393 1-1074)
chain: MSLKNEPRVNTSALQKIAADMSNIIENLDTRELHFEGEEVDYDVSPSDPKIQEVYIPFSAIYNTQGFKEPNIQTYLSGCPIKAQVLEVERFTSTTRVPSINLYTIELTHGEFKWQVKRKFKHFQEFHRELLKYKAFIRIPIPTRRHTFRRQNVREEPREMPSLPRSSENMIREEQFLGRRKQLEDYLTKILKMPMYRNYHATTEFLDISQLSFIHDLGPKGIEGMIMKRSGGHRIPGLNCCGQGRACYRWSKRWLIVKDSFLLYMKPDSGAIAFVLLVDKEFKIKVGKKETETKYGIRIDNLSRTLILKCNSYRHARWWGGAIEEFIQKHGTNFLKDHRFGSYAAIQENALAKWYVNAKGYFEDVANAMEEANEEIFITDWWLSPEIFLKRPVVEGNRWRLDCILKRKAQQGVRIFIMLYKEVELALGINSEYTKRTLMRLHPNIKVMRHPDHVSSTVYLWAHHEKLVIIDQSVAFVGGIDLAYGRWDDNEHRLTDVGSVKRVTSGPSLGSLPPAAMESMESLRLKDKNEPVQNLPIQKSIDDVDSKLKGIGKPRKFSKFSLYKQLHRHHLHDADSISSIDSTSSYFNHYRSHHNLIHGLKPHFKLFHPSSESEQGLTRPHADTGSIRSLQTGVGELHGETRFWHGKDYCNFVFKDWVQLDKPFADFIDRYSTPRMPWHDIASAVHGKAARDVARHFIQRWNFTKIMKSKYRSLSYPFLLPKSQTTAHELRYQVPGSVHANVQLLRSAADWSAGIKYHEESIHAAYVHVIENSRHYIYIENQFFISCADDKVVFNKIGDAIAQRILKAHRENQKYRVYVVIPLLPGFEGDISTGGGNALQAIMHFNYRTMCRGENSILGQLKAELGNQWINYISFCGLRTHAELEGNLVTELIYVHSKLLIADDNTVIIGSANINDRSMLGKRDSEMAVIVQDTETVPSVMDGKEYQAGRFARGLRLQCFRVVLGYLDDPSEDIQDPVSDKFFKEVWVSTAARNATIYDKVFRCLPNDEVHNLIQLRDFINKPVLAKEDPIRAEEELKKIRGFLVQFPFYFLSEESLLPSVGTKEAIVPMEVWT
[4]
  binding: binds

B2: In vitro-translated PLD1 (enzyme, UniProt Q13393 1-1074)
chain: MSLKNEPRVNTSALQKIAADMSNIIENLDTRELHFEGEEVDYDVSPSDPKIQEVYIPFSAIYNTQGFKEPNIQTYLSGCPIKAQVLEVERFTSTTRVPSINLYTIELTHGEFKWQVKRKFKHFQEFHRELLKYKAFIRIPIPTRRHTFRRQNVREEPREMPSLPRSSENMIREEQFLGRRKQLEDYLTKILKMPMYRNYHATTEFLDISQLSFIHDLGPKGIEGMIMKRSGGHRIPGLNCCGQGRACYRWSKRWLIVKDSFLLYMKPDSGAIAFVLLVDKEFKIKVGKKETETKYGIRIDNLSRTLILKCNSYRHARWWGGAIEEFIQKHGTNFLKDHRFGSYAAIQENALAKWYVNAKGYFEDVANAMEEANEEIFITDWWLSPEIFLKRPVVEGNRWRLDCILKRKAQQGVRIFIMLYKEVELALGINSEYTKRTLMRLHPNIKVMRHPDHVSSTVYLWAHHEKLVIIDQSVAFVGGIDLAYGRWDDNEHRLTDVGSVKRVTSGPSLGSLPPAAMESMESLRLKDKNEPVQNLPIQKSIDDVDSKLKGIGKPRKFSKFSLYKQLHRHHLHDADSISSIDSTSSYFNHYRSHHNLIHGLKPHFKLFHPSSESEQGLTRPHADTGSIRSLQTGVGELHGETRFWHGKDYCNFVFKDWVQLDKPFADFIDRYSTPRMPWHDIASAVHGKAARDVARHFIQRWNFTKIMKSKYRSLSYPFLLPKSQTTAHELRYQVPGSVHANVQLLRSAADWSAGIKYHEESIHAAYVHVIENSRHYIYIENQFFISCADDKVVFNKIGDAIAQRILKAHRENQKYRVYVVIPLLPGFEGDISTGGGNALQAIMHFNYRTMCRGENSILGQLKAELGNQWINYISFCGLRTHAELEGNLVTELIYVHSKLLIADDNTVIIGSANINDRSMLGKRDSEMAVIVQDTETVPSVMDGKEYQAGRFARGLRLQCFRVVLGYLDDPSEDIQDPVSDKFFKEVWVSTAARNATIYDKVFRCLPNDEVHNLIQLRDFINKPVLAKEDPIRAEEELKKIRGFLVQFPFYFLSEESLLPSVGTKEAIVPMEVWT
[5]
  binding: binds
